Binding data for one substance are collected here from publication doi:10.1101/2024.12.23.630174.

Chains of the proteins cited; added tags and fusions are not shown.
UniProt P01106: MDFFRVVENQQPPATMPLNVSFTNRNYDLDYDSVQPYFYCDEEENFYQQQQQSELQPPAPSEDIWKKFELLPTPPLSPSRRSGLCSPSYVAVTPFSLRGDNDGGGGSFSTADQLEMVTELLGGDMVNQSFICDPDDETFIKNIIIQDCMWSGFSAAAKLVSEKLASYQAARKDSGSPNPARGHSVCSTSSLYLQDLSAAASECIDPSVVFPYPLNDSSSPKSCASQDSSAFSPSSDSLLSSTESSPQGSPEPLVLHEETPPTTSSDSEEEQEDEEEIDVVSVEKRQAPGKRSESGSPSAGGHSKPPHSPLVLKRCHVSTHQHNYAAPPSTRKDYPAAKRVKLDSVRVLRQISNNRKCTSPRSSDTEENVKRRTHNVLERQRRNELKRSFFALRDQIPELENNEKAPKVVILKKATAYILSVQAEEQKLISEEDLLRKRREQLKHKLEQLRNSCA
UniProt Q9UKL0: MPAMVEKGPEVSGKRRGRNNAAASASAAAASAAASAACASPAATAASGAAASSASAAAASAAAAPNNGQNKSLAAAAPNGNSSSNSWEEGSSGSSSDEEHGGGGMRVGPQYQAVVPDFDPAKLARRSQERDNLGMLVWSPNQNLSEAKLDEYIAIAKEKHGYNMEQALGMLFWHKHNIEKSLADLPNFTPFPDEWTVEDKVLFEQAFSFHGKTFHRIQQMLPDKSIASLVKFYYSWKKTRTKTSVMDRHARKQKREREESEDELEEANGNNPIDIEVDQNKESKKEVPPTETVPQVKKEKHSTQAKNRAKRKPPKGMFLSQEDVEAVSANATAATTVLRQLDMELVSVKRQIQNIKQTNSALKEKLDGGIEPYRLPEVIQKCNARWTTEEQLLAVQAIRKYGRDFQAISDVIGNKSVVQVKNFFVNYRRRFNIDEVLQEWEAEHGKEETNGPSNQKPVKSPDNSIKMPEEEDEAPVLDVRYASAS

This experiment addresses MYC (human (endogenous in WM983B)) (UniProt P01106). Put plainly: proximity ligation.

These are yes or no findings as the source states them, for the method shown. In cells and extracts the contact can be indirect. Some results given as binding are weak or reduced against the parent protein; the word gives no strength.

“REST corepressor 1 (RCOR1) (from UniProt Q9UKL0 1-485)”: the binding entry is reported as “binds”.
